Experimental data from the supplement of paper PMC10849652.
The other results are listed elsewhere or left out.

By UniProt entry, the sequences of proteins in these tests, tags left out. Where a name states a change or a piece, a line headed by the entry shows the natural chain unless it says otherwise.
UniProt Q8TCD5: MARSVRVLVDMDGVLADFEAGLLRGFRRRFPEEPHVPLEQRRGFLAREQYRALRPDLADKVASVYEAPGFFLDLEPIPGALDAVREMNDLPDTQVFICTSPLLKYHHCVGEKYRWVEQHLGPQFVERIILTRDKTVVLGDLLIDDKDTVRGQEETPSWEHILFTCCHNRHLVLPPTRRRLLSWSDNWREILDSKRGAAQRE
UniProt P07237: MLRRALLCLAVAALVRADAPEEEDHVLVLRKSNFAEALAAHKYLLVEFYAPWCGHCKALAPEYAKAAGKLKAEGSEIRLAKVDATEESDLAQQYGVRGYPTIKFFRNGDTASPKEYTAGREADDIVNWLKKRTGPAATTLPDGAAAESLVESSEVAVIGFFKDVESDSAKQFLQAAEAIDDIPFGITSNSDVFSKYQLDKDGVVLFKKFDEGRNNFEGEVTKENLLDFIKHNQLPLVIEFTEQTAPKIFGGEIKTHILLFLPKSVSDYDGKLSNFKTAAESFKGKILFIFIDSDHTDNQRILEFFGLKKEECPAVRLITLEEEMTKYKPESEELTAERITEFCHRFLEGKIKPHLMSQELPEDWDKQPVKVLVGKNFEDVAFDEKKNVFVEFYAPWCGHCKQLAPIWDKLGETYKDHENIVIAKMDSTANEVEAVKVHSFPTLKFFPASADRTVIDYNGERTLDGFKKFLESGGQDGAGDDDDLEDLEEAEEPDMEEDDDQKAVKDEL
UniProt Q8WUM0: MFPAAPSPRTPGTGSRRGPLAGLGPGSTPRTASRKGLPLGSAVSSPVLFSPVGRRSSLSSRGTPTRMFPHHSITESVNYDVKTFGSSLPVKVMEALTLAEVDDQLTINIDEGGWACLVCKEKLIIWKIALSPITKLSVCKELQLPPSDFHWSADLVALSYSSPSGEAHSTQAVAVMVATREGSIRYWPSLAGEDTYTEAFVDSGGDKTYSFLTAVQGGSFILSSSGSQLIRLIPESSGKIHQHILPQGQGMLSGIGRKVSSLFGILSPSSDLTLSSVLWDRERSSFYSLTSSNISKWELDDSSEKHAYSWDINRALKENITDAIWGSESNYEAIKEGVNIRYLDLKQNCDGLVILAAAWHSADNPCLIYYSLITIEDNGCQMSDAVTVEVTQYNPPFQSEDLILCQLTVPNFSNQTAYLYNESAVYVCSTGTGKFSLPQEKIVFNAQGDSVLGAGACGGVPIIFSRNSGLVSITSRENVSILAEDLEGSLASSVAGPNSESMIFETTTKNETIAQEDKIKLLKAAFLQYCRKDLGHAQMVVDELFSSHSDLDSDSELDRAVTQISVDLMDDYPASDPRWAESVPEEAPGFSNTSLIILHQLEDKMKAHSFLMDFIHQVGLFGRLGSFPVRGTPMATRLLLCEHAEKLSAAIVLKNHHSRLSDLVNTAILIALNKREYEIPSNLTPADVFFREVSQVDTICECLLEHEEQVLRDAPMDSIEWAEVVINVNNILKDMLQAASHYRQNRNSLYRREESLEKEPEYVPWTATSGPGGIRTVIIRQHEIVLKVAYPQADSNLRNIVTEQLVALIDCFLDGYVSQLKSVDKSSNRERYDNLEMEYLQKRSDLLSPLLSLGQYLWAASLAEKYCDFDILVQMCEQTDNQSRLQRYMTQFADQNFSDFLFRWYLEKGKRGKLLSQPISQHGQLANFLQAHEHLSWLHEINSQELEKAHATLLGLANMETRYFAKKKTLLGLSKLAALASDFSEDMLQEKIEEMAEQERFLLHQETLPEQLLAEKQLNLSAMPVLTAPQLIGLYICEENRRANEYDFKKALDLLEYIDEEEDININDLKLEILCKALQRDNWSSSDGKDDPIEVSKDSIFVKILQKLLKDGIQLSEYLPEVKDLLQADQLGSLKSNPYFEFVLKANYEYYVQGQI
UniProt Q9UKX7: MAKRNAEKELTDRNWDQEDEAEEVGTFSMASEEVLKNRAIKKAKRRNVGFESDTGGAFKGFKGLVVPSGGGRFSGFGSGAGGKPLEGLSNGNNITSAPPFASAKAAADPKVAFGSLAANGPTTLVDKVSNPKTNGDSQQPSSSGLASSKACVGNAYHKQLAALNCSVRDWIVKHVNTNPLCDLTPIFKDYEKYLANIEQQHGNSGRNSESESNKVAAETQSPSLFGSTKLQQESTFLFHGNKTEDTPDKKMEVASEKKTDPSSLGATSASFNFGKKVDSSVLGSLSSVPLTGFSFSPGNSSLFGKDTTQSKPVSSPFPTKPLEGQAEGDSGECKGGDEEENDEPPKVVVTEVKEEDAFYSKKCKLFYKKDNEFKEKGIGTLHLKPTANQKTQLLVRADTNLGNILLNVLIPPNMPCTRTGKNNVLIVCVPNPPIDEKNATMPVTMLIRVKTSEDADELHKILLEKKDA
UniProt O43482, whole entry, looked up: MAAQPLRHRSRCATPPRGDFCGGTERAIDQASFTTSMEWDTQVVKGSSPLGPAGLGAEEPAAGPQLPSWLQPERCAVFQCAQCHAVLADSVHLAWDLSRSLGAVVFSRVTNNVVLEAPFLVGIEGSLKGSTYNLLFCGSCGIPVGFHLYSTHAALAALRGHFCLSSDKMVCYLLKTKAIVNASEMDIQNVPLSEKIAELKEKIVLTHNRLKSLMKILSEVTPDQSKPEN
UniProt Q96FW1, whole entry, looked up: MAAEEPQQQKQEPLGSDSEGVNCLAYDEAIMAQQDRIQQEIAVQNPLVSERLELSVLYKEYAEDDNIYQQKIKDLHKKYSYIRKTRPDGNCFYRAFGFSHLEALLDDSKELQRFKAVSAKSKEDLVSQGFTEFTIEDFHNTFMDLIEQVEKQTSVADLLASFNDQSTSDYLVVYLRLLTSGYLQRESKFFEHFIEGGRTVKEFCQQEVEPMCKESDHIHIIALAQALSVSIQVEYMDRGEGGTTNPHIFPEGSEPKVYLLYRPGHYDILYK
UniProt Q9BXS6: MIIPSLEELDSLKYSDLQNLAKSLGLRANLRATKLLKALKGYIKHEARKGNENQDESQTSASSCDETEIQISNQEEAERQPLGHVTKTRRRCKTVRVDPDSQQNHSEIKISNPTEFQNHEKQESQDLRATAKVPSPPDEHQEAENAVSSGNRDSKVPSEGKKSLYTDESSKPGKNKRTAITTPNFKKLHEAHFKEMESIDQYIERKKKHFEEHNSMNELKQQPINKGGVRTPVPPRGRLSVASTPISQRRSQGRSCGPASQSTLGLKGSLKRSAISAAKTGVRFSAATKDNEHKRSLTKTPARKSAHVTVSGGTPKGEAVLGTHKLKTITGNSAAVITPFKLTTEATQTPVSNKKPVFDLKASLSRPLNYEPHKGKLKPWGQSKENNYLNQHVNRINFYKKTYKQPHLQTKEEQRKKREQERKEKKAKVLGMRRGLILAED
UniProt Q9H857: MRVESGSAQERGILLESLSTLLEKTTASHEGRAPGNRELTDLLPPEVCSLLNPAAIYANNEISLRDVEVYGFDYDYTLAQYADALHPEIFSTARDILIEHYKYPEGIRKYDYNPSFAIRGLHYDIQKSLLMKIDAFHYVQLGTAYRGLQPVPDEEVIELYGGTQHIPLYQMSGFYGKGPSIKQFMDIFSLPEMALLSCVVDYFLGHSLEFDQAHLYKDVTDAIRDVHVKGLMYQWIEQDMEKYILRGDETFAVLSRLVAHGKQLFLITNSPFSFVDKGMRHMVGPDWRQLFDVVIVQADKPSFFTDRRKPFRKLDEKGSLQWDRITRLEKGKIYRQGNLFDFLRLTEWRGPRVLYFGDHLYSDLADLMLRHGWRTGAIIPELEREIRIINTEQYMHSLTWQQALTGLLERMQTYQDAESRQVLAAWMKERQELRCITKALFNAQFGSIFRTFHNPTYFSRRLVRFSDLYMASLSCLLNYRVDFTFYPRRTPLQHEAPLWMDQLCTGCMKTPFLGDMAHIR
UniProt Q9Y5Y2: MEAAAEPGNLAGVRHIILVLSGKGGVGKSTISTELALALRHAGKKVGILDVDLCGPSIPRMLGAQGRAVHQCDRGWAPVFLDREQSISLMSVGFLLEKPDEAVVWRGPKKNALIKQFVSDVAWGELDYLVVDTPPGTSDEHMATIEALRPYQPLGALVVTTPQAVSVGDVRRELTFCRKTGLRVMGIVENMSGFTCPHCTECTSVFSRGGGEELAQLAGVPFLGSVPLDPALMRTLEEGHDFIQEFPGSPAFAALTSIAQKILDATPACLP
UniProt Q9Y5A7: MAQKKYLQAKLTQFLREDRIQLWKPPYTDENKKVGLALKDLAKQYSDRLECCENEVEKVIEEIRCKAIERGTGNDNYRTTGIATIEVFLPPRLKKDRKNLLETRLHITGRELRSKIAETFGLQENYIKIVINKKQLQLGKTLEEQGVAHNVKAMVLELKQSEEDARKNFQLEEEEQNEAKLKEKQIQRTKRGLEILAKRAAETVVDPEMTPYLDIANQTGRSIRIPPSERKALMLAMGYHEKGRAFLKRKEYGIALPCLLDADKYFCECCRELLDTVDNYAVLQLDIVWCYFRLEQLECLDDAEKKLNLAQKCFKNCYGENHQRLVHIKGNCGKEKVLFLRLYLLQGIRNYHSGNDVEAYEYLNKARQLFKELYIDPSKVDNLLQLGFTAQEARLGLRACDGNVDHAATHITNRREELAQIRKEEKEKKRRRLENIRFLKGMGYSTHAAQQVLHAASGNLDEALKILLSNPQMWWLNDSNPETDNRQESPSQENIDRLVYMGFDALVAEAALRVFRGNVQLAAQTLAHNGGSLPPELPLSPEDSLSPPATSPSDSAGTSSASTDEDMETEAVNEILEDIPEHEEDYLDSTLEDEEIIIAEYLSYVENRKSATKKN
UniProt O43929: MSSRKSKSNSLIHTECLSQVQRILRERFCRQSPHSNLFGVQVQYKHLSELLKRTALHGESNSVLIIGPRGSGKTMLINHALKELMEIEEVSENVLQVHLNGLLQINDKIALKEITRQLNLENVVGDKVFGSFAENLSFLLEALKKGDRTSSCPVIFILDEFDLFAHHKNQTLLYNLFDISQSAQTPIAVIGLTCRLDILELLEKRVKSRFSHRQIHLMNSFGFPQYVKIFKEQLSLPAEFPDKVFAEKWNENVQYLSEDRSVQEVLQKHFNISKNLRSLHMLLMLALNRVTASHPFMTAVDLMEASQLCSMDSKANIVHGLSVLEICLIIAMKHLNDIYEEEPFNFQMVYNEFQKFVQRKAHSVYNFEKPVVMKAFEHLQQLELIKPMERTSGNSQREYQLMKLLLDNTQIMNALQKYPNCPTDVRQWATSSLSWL
UniProt Q9BRJ7: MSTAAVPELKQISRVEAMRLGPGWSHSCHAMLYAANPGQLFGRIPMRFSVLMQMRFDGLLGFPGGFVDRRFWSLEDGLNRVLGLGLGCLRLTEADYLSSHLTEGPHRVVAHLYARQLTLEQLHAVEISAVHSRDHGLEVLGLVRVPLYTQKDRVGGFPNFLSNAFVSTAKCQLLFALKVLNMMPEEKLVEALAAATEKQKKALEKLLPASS
UniProt Q96RS6: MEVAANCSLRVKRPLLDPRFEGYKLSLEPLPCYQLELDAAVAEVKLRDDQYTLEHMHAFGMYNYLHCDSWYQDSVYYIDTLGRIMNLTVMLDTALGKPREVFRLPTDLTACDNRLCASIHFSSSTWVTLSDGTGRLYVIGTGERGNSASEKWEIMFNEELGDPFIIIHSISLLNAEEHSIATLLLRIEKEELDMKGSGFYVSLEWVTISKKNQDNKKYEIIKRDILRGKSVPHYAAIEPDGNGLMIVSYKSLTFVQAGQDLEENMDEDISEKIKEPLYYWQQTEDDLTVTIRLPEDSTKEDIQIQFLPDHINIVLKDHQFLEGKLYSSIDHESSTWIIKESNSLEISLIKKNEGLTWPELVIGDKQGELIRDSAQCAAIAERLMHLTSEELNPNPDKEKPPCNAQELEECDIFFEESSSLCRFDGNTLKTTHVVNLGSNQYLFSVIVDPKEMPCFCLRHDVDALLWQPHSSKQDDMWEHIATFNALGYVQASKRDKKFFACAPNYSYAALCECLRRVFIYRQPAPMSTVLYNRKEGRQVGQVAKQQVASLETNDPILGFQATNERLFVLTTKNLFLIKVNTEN
UniProt Q9H0G5: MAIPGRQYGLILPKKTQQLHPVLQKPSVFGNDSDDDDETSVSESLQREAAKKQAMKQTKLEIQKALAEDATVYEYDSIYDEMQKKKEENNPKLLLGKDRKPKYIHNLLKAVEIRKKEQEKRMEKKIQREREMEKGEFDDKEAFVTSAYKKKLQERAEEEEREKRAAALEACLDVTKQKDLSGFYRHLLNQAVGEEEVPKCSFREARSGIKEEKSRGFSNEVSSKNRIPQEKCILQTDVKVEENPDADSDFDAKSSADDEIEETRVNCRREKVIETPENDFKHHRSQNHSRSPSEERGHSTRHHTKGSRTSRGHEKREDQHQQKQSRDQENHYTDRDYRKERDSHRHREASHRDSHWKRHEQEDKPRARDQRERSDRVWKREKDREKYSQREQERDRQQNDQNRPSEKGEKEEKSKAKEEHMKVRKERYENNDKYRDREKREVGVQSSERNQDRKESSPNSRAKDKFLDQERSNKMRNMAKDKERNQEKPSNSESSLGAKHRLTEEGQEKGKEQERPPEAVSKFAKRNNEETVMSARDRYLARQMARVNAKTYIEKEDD

Compound: CN(CCOC1=CC=C(C=C1)C[C@H]2C(=O)NC(=O)S2)C3=CC=CC=N3 (racemic) [rosiglitazone]
Assay: log2 fold change, soluble protein after heating vs DMSO (PISA); higher = thermal stabilisation; K562 cells, 10 uM, 30 min; active = over 0.2 and 3.5 SD of the protein, either way, in both replicates (recomputed)
Outline: (§1)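 Values are thermal stability changes relative to control samples and are taken from duplicates. They are stated as log2 fold changes. Before quantification by TMTpro 16plex LC-MS/MS with equalised channel sums, K562 cells at 2×10^6 cells/mL were treated with 10 μM compound for 30 min, heated in aliquots for 3 min across 48°C-58°C, pooled, extracted in PBS with 0.5% NP-40 at 4°C, and centrifuged at 21,000xg for 90 min to give the soluble supernatant.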

Q: How did the log2 fold change turn out when NSUN6 (UniProt Q8TEA1) was run?
A: inactive: 0.008

Q: How did the log2 fold change turn out when NT5C (UniProt Q8TCD5) was run?
A: inactive: 0.01

Q: With NUP37 (UniProt Q8NFH4) as the target, how does the log2 fold change read?
A: inactive: 0.007

Q: Which log2 fold change does the source give for NUP93 (UniProt Q8N1F7) here?
A: inactive: 0.066

Q: For NUCB1 (UniProt Q02818), which log2 fold change is on record?
A: inactive: -0.029

Q: Which log2 fold change does the source give for NUDCD3 (UniProt Q8IVD9) here?
A: inactive: 0.056

Q: P4HB (UniProt P07237) was tested. Which log2 fold change did it give?
A: inactive: -0.013

Q: With P4HA1 (UniProt P13674) as the target, how does the log2 fold change read?
A: inactive: -0.042

Q: OTC (UniProt P00480) was tested. Which log2 fold change did it give?
A: inactive: 0.109

Q: With OS9 (UniProt Q13438) as the target, how does the log2 fold change read?
A: inactive: -0.005

Q: Which log2 fold change does the source give for NUP133 (UniProt Q8WUM0) here?
A: inactive: -0.064

Q: NUP50 (UniProt Q9UKX7) was tested. Which log2 fold change did it give?
A: inactive: 0.007

Q: For NUCB2 (UniProt P80303), which log2 fold change is on record?
A: inactive: 0.003

Q: With OIP5 (UniProt O43482) as the target, how does the log2 fold change read?
A: inactive: 0.042

Q: Which log2 fold change does the source give for OTUB1 (UniProt Q96FW1) here?
A: inactive: 0.028

Q: For PA2G4 (UniProt Q9UQ80), which log2 fold change is on record?
A: inactive: 0.054

Q: NUDT19 (UniProt A8MXV4) was tested. Which log2 fold change did it give?
A: inactive: 0.004

Q: NUSAP1 (UniProt Q9BXS6) was tested. Which log2 fold change did it give?
A: inactive: 0.019

Q: NT5DC2 isoform 2 (UniProt Q9H857) was tested. Which log2 fold change did it give?
A: inactive: -0.056

Q: How did the log2 fold change turn out when NUBP2 (UniProt Q9Y5Y2) was run?
A: inactive: 0.034

Q: NUB1 (UniProt Q9Y5A7) was tested. Which log2 fold change did it give?
A: inactive: 0.089

Q: How did the log2 fold change turn out when ORC4 (UniProt O43929) was run?
A: inactive: 0.062

Q: With NUDT16L1 (UniProt Q9BRJ7) as the target, how does the log2 fold change read?
A: inactive: -0.047

Q: NUDCD1 (UniProt Q96RS6) was tested. Which log2 fold change did it give?
A: inactive: 0.024

Q: Which log2 fold change does the source give for NUP214 isoform 5 (UniProt P35658) here?
A: inactive: 0.007

Q: How did the log2 fold change turn out when OMA1 (UniProt Q96E52) was run?
A: inactive: 0.019

Q: Which log2 fold change does the source give for OXCT1 (UniProt P55809) here?
A: inactive: 0.045

Q: For NSRP1 (UniProt Q9H0G5), which log2 fold change is on record?
A: inactive: -0.055

Q: With NUDT3 (UniProt O95989) as the target, how does the log2 fold change read?
A: inactive: 0.004

Compound: CN1C2=C(C3=C1C(=O)N(N=C3)CC4=CC(=CC=C4)N)SC(=C2)S(=O)C
Assay: as above
Outline: as §1

Q: Which log2 fold change does the source give for NSUN6 (UniProt Q8TEA1) here?
A: inactive: -0.05

Q: For NT5C (UniProt Q8TCD5), which log2 fold change is on record?
A: inactive: -0.034

Q: For NUP37 (UniProt Q8NFH4), which log2 fold change is on record?
A: inactive: 0.008

Q: NUP93 (UniProt Q8N1F7) was tested. Which log2 fold change did it give?
A: inactive: 0.036

Q: With NUCB1 (UniProt Q02818) as the target, how does the log2 fold change read?
A: inactive: -0.034

Q: Which log2 fold change does the source give for NUDCD3 (UniProt Q8IVD9) here?
A: inactive: -0.032

Q: With P4HB (UniProt P07237) as the target, how does the log2 fold change read?
A: inactive: -0.021

Q: With P4HA1 (UniProt P13674) as the target, how does the log2 fold change read?
A: inactive: 0.081

Q: Which log2 fold change does the source give for OTC (UniProt P00480) here?
A: inactive: 0.059

Q: How did the log2 fold change turn out when OS9 (UniProt Q13438) was run?
A: inactive: 0.019

Q: NUP133 (UniProt Q8WUM0) was tested. Which log2 fold change did it give?
A: inactive: 0.154

Q: NUP50 (UniProt Q9UKX7) was tested. Which log2 fold change did it give?
A: inactive: -0.079

Q: Which log2 fold change does the source give for NUCB2 (UniProt P80303) here?
A: inactive: 0.01

Q: OIP5 (UniProt O43482) was tested. Which log2 fold change did it give?
A: inactive: -0.07

Q: Which log2 fold change does the source give for OTUB1 (UniProt Q96FW1) here?
A: inactive: -0.089

Q: How did the log2 fold change turn out when PA2G4 (UniProt Q9UQ80) was run?
A: inactive: -0.023

Q: With NUDT19 (UniProt A8MXV4) as the target, how does the log2 fold change read?
A: inactive: -0.054

Q: NUSAP1 (UniProt Q9BXS6) was tested. Which log2 fold change did it give?
A: inactive: 0.161

Q: How did the log2 fold change turn out when NT5DC2 isoform 2 (UniProt Q9H857) was run?
A: inactive: -0.018

Q: For NUBP2 (UniProt Q9Y5Y2), which log2 fold change is on record?
A: inactive: -0.134

Q: For NUB1 (UniProt Q9Y5A7), which log2 fold change is on record?
A: inactive: 0.161

Q: ORC4 (UniProt O43929) was tested. Which log2 fold change did it give?
A: inactive: -0.058

Q: How did the log2 fold change turn out when NUDT16L1 (UniProt Q9BRJ7) was run?
A: inactive: -0.013

Q: How did the log2 fold change turn out when NUDCD1 (UniProt Q96RS6) was run?
A: inactive: -0.073

Q: How did the log2 fold change turn out when NUP214 isoform 5 (UniProt P35658) was run?
A: inactive: 0.226

Q: For OMA1 (UniProt Q96E52), which log2 fold change is on record?
A: inactive: -0.083

Q: Which log2 fold change does the source give for OXCT1 (UniProt P55809) here?
A: inactive: -0.077

Q: NSRP1 (UniProt Q9H0G5) was tested. Which log2 fold change did it give?
A: inactive: 0.204

Q: Which log2 fold change does the source give for NUDT3 (UniProt O95989) here?
A: inactive: 0

Compound: CN1CCC(CNc2ccc3ncc(-c4cccc(OC(F)(F)F)c4)n3n2)CC1
Assay: as above
Outline: as §1

Q: With NSUN6 (UniProt Q8TEA1) as the target, how does the log2 fold change read?
A: inactive: -0.018

Q: Which log2 fold change does the source give for NT5C (UniProt Q8TCD5) here?
A: inactive: -0.025

Q: NUP37 (UniProt Q8NFH4) was tested. Which log2 fold change did it give?
A: inactive: -0.034

Q: Which log2 fold change does the source give for NUP93 (UniProt Q8N1F7) here?
A: inactive: -0.083

Q: For NUCB1 (UniProt Q02818), which log2 fold change is on record?
A: inactive: 0.123

Q: Which log2 fold change does the source give for NUDCD3 (UniProt Q8IVD9) here?
A: inactive: -0.087

Q: How did the log2 fold change turn out when P4HB (UniProt P07237) was run?
A: inactive: 0.093

Q: With P4HA1 (UniProt P13674) as the target, how does the log2 fold change read?
A: inactive: 0.07

Q: Which log2 fold change does the source give for OTC (UniProt P00480) here?
A: inactive: -0.147

Q: For OS9 (UniProt Q13438), which log2 fold change is on record?
A: inactive: 0.094

Q: Which log2 fold change does the source give for NUP133 (UniProt Q8WUM0) here?
A: inactive: -0.046

Q: NUP50 (UniProt Q9UKX7) was tested. Which log2 fold change did it give?
A: inactive: 0

Q: How did the log2 fold change turn out when NUCB2 (UniProt P80303) was run?
A: inactive: 0.04

Q: How did the log2 fold change turn out when OIP5 (UniProt O43482) was run?
A: inactive: -0.094

Q: How did the log2 fold change turn out when OTUB1 (UniProt Q96FW1) was run?
A: inactive: -0.053

Q: How did the log2 fold change turn out when PA2G4 (UniProt Q9UQ80) was run?
A: inactive: 0.007

Q: With NUDT19 (UniProt A8MXV4) as the target, how does the log2 fold change read?
A: inactive: 0.035

Q: For NUSAP1 (UniProt Q9BXS6), which log2 fold change is on record?
A: inactive: 0.202

Q: Which log2 fold change does the source give for NT5DC2 isoform 2 (UniProt Q9H857) here?
A: inactive: 0.024

Q: Which log2 fold change does the source give for NUBP2 (UniProt Q9Y5Y2) here?
A: inactive: -0.097

Q: With NUB1 (UniProt Q9Y5A7) as the target, how does the log2 fold change read?
A: inactive: -0.142

Q: How did the log2 fold change turn out when ORC4 (UniProt O43929) was run?
A: inactive: -0.247

Q: NUDT16L1 (UniProt Q9BRJ7) was tested. Which log2 fold change did it give?
A: inactive: -0.009

Q: With NUDCD1 (UniProt Q96RS6) as the target, how does the log2 fold change read?
A: inactive: -0.087

Q: For NUP214 isoform 5 (UniProt P35658), which log2 fold change is on record?
A: inactive: 0.015

Q: With OMA1 (UniProt Q96E52) as the target, how does the log2 fold change read?
A: inactive: 0.042

Q: OXCT1 (UniProt P55809) was tested. Which log2 fold change did it give?
A: inactive: 0.103

Q: With NSRP1 (UniProt Q9H0G5) as the target, how does the log2 fold change read?
A: inactive: 0.096

Q: With NUDT3 (UniProt O95989) as the target, how does the log2 fold change read?
A: inactive: 0
